Counter-ions that a name gives are not always drawn. Some of the results follow. The calls rarely recur for the same compound in another form.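 Kinases, fused to nanoluciferase, were expressed in K562 cells; luminescence was measured every 4 h from 2 to 18 h as percent of control (DMSO = 100%, positive control = 0%). A time point is decreased if signal falls significantly (2 sigma). Hits were called by the authors by a rule that is not shown; the count of time points alone does not decide it.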
What was measured:
Assay in all cases: kinase-Nluc reporter destabilization hit call (1 = scored as downregulated) (binary); higher = compound decreases kinase abundance
Settings in all cases: K562; 2-18 h
ABL1 = ABL1 (UniProt P00519)
AKT1 = AKT1 (UniProt P31749)
ALK = ALK (UniProt Q9UM73)
ARAF = ARAF (UniProt P10398)
AURKA = AURKA (UniProt O14965)
AURKB = AURKB (UniProt Q96GD4)
AURKC = AURKC (UniProt Q9UQB9)
BLK = BLK (UniProt P51451)
BMX = BMX (UniProt P51813)
BRAF = BRAF (UniProt P15056)
BRAF_V600E = tested on: BRAF_V600E
BTK = BTK (UniProt Q06187)
CAMK2A = CAMK2A (UniProt Q9UQM7)
CAMK2G = CAMK2G (UniProt Q13555)
CDK10 = CDK10 (UniProt Q15131)
CDK2 = CDK2 (UniProt P24941)
CDK3 = CDK3 (UniProt Q00526)
CDK4 = CDK4 (UniProt P11802)
CDK5 = CDK5 (UniProt Q00535)
CDK6 = CDK6 (UniProt Q00534)

Protein sequences, listed by entry. Tags and fused reporters are not part of them. Lines headed by an entry give the natural chain unless they say otherwise; changes in a name come on top.
UniProt P31749: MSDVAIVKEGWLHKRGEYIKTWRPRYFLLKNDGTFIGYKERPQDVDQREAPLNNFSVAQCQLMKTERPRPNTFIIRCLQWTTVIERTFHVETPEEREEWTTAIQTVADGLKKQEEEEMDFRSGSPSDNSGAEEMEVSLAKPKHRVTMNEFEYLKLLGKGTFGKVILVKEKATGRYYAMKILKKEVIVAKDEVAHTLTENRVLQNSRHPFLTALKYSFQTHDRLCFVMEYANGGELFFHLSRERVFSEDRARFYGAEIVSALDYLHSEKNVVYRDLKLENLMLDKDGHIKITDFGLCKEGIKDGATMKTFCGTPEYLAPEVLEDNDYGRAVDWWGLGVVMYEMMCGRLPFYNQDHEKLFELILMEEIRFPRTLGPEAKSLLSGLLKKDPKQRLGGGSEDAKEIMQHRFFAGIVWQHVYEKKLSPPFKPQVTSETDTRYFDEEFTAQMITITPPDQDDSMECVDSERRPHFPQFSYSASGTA
UniProt P10398: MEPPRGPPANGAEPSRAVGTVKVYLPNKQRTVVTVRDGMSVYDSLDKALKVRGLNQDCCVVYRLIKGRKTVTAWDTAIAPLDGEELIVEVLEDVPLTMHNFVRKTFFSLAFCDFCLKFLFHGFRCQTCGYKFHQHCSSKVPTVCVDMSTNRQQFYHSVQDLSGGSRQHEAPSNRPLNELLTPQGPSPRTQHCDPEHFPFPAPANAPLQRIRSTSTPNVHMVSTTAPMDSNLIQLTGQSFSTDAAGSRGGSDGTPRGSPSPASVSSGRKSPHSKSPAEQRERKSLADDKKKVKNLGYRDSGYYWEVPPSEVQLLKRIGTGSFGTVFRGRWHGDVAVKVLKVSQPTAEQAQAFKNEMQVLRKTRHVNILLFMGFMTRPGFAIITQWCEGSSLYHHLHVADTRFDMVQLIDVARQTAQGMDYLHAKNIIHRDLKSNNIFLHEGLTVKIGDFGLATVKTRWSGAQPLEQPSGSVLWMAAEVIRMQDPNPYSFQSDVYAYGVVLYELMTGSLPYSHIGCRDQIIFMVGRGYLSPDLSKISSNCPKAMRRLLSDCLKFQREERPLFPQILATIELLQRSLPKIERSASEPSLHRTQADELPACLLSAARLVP
UniProt P51451: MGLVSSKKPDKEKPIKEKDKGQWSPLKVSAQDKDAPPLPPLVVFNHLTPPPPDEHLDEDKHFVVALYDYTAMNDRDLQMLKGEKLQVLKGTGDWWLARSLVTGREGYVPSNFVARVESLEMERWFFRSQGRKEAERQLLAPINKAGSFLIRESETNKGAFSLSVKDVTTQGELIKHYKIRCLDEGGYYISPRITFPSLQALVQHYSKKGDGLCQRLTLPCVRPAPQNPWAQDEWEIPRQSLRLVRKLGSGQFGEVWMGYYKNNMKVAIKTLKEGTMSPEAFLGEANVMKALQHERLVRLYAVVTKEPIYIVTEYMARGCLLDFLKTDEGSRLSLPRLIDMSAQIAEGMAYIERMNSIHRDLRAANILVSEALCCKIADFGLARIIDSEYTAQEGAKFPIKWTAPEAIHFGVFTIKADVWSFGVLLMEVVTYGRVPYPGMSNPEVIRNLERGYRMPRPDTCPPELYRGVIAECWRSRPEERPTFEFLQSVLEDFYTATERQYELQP
UniProt P51813: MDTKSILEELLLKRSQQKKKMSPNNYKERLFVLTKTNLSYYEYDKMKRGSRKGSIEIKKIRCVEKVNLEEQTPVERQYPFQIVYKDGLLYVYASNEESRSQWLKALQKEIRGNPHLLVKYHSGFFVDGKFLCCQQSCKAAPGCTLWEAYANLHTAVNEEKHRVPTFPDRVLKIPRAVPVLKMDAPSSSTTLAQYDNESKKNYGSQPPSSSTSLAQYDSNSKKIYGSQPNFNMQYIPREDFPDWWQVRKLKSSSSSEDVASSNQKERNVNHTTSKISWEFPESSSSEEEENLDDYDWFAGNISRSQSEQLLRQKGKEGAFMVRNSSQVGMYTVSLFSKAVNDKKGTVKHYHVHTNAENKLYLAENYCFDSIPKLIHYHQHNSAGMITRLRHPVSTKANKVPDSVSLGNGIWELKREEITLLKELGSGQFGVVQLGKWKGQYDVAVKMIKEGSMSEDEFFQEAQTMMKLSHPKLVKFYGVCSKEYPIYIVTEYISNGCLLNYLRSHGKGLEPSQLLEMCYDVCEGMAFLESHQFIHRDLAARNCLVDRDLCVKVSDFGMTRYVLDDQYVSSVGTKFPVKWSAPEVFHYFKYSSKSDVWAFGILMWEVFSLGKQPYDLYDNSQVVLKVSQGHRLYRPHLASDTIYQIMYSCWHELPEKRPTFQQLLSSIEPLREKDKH
UniProt P15056, whole entry, looked up: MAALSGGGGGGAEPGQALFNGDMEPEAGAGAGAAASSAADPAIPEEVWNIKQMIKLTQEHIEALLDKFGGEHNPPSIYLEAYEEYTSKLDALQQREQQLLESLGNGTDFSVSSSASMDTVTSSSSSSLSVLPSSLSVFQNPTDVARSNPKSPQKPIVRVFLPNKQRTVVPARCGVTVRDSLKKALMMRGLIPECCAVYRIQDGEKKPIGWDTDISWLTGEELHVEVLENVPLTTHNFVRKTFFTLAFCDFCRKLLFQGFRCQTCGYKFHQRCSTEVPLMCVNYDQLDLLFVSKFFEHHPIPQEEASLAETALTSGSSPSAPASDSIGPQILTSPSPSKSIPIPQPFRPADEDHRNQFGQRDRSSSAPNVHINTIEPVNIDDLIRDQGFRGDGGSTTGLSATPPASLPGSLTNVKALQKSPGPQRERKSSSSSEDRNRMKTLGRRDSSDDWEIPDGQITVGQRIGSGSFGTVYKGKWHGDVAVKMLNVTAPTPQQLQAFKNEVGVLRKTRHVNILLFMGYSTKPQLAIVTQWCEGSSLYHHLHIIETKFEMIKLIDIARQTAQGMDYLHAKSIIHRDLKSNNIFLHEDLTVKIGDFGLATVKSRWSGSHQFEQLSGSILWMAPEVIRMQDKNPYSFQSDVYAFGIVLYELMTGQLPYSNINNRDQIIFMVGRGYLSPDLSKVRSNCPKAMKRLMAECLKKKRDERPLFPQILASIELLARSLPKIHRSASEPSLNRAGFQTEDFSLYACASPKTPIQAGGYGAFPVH
UniProt Q06187: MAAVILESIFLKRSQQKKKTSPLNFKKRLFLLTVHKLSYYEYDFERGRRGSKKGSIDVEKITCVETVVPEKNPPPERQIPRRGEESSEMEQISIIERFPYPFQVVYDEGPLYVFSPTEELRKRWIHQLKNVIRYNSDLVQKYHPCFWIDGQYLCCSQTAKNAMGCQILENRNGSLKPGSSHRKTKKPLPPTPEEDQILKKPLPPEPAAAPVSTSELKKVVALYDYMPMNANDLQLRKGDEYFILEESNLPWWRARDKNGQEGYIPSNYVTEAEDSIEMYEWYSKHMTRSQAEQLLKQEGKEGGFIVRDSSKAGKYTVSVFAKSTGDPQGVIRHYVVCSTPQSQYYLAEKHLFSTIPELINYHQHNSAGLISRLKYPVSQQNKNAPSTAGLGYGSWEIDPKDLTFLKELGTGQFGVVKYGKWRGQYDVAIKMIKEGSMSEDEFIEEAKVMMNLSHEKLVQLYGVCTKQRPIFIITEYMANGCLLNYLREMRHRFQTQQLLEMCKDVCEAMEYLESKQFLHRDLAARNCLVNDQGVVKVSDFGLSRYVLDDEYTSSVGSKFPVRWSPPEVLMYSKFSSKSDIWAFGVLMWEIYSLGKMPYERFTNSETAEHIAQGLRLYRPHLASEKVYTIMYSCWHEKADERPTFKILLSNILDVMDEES
UniProt Q9UQM7, whole entry: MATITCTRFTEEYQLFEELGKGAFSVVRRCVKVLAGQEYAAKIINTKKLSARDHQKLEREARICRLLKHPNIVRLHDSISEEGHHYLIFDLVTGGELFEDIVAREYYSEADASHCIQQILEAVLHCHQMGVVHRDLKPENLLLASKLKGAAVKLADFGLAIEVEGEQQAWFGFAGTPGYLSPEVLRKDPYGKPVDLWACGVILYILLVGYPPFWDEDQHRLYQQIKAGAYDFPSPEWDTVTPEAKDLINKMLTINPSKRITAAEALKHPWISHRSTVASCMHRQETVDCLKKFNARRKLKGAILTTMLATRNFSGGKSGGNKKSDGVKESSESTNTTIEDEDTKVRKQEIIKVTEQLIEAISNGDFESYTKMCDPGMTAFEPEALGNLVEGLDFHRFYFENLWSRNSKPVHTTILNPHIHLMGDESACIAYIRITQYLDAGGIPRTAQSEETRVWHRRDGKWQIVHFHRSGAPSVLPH
UniProt Q13555: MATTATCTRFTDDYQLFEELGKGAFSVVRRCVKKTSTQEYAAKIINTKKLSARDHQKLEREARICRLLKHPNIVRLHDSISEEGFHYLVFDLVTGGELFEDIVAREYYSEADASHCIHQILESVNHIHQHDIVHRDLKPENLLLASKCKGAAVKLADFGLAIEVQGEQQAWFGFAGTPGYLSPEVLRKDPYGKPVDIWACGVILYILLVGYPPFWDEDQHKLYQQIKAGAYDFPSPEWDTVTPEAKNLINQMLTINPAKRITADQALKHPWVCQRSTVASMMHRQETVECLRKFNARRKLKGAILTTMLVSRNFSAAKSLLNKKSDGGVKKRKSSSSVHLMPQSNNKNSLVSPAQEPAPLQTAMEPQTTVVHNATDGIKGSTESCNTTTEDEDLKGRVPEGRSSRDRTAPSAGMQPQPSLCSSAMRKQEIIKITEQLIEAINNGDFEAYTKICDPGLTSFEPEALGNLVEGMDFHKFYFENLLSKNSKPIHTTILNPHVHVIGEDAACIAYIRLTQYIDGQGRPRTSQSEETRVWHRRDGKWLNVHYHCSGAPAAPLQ
UniProt Q15131: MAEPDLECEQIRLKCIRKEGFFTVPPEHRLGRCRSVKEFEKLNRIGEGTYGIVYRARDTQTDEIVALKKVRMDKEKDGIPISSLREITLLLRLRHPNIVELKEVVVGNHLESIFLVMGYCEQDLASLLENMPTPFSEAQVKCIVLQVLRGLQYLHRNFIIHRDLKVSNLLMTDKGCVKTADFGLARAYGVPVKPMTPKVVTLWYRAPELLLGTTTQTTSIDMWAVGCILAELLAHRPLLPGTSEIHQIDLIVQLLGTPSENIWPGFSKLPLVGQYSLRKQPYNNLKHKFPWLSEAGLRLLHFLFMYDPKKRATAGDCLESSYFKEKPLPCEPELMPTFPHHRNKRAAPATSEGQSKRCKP
UniProt Q00526: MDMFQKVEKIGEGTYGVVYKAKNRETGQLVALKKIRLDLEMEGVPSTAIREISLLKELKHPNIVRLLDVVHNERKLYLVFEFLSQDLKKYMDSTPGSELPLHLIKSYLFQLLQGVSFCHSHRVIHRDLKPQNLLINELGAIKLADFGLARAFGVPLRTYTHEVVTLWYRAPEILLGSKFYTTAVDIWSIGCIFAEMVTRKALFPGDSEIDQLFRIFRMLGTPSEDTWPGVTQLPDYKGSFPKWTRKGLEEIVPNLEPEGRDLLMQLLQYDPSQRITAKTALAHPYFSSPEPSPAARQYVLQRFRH
UniProt P11802: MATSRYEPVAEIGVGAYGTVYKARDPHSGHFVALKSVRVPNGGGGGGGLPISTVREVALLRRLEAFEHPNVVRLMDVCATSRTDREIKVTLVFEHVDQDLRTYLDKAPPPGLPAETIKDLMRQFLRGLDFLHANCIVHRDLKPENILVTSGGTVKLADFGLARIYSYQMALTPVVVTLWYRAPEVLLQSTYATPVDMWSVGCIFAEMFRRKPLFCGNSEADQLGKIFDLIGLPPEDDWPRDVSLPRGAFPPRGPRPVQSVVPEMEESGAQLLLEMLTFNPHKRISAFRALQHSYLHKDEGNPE
UniProt Q00535, whole entry, looked up: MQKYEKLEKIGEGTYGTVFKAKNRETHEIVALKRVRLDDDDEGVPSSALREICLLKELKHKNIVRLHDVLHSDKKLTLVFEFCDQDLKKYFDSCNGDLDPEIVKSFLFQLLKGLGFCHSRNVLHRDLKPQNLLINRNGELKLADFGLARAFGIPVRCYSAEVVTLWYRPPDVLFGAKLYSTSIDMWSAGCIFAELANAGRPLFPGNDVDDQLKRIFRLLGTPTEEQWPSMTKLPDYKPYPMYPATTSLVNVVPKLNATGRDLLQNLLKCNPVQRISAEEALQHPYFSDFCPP
UniProt Q00534, whole entry: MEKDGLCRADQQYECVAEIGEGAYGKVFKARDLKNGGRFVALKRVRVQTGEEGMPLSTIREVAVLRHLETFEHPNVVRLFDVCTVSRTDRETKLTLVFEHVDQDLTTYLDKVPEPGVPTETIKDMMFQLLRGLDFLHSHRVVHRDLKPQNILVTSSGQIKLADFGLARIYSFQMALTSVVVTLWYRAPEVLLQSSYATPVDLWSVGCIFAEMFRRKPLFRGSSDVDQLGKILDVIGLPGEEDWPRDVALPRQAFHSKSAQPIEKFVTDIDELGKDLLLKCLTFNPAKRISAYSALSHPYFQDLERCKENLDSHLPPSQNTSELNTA

Row | Compound | kinase-Nluc reporter destabilization hit call (ABL1) | kinase-Nluc reporter destabilization hit call (AKT1) | kinase-Nluc reporter destabilization hit call (ALK) | kinase-Nluc reporter destabilization hit call (ARAF) | kinase-Nluc reporter destabilization hit call (AURKA) | kinase-Nluc reporter destabilization hit call (AURKB) | kinase-Nluc reporter destabilization hit call (AURKC) | kinase-Nluc reporter destabilization hit call (BLK) | kinase-Nluc reporter destabilization hit call (BMX) | kinase-Nluc reporter destabilization hit call (BRAF) | kinase-Nluc reporter destabilization hit call (BRAF_V600E) | kinase-Nluc reporter destabilization hit call (BTK) | kinase-Nluc reporter destabilization hit call (CAMK2A) | kinase-Nluc reporter destabilization hit call (CAMK2G) | kinase-Nluc reporter destabilization hit call (CDK10) | kinase-Nluc reporter destabilization hit call (CDK2) | kinase-Nluc reporter destabilization hit call (CDK3) | kinase-Nluc reporter destabilization hit call (CDK4) | kinase-Nluc reporter destabilization hit call (CDK5) | kinase-Nluc reporter destabilization hit call (CDK6)
1 | CC(=O)O[C@@H]1[C@@H](OC(C)=O)[C@@H](O)[C@H](Oc2c(-c3ccc(O)cc3)oc3cc(O)cc(O)c3c2=O)O[C@H]1C (10 µM) | inactive: 0 | inactive: 0 | inactive: 0 | inactive: 0 | inactive: 0 | inactive: 0 | inactive: 0 | inactive: 0 | inactive: 0 | inactive: 0 | inactive: 0 | inactive: 0 | inactive: 0 | inactive: 0 | inactive: 0 | inactive: 0 | inactive: 0 | inactive: 0 | inactive: 0 | inactive: 0
2 | Fc1ccc(-c2nc3n(c2-c2ccncc2)CCS3)cc1 (10 µM) | inactive: 0 | inactive: 0 | inactive: 0 | inactive: 0 | inactive: 0 | inactive: 0 | inactive: 0 | inactive: 0 | inactive: 0 | inactive: 0 | inactive: 0 | inactive: 0 | inactive: 0 | inactive: 0 | inactive: 0 | inactive: 0 | inactive: 0 | inactive: 0 | inactive: 0 | inactive: 0
3 | CNCCOc1ccccc1C1(Nc2nccn(-c3cc(C(=O)NC4CC4)cc(F)c3C)c2=O)CC1 (10 µM) | inactive: 0 | inactive: 0 | inactive: 0 | inactive: 0 | inactive: 0 | inactive: 0 | inactive: 0 | inactive: 0 | inactive: 0 | inactive: 0 | inactive: 0 | inactive: 0 | inactive: 0 | inactive: 0 | inactive: 0 | inactive: 0 | inactive: 0 | inactive: 0 | inactive: 0 | inactive: 0
4 | Cn1cc(-c2nc(N[C@@H]3CCCC[C@@H]3N)c(F)c3c2C(=O)NC3)cn1 [TAK-659 (hydrochloride)] (2 µM) | inactive: 0 | inactive: 0 | inactive: 0 | inactive: 0 | inactive: 0 | inactive: 0 | inactive: 0 | inactive: 0 | inactive: 0 | inactive: 0 | inactive: 0 | inactive: 0 | inactive: 0 | inactive: 0 | inactive: 0 | inactive: 0 | inactive: 0 | inactive: 0 | inactive: 0 | inactive: 0
5 | CCOC(=O)c1c(C)[nH]c(C=C2C(=O)Nc3ccccc32)c1C (10 µM) | inactive: 0 | inactive: 0 | inactive: 0 | inactive: 0 | inactive: 0 | inactive: 0 | inactive: 0 | inactive: 0 | inactive: 0 | inactive: 0 | inactive: 0 | inactive: 0 | inactive: 0 | inactive: 0 | inactive: 0 | inactive: 0 | inactive: 0 | inactive: 0 | inactive: 0 | inactive: 0
6 | Cc1ncsc1-c1ccc(CNC(=O)[C@@H]2C[C@@H](O)CN2C(=O)[C@@H](NC(=O)COCCOc2ccc(-c3cc(Nc4ccc(OC(F)(F)F)cc4)ncn3)cc2)C(C)(C)C)cc1 (2.5 µM) | active: 1 | inactive: 0 | inactive: 0 | inactive: 0 | inactive: 0 | inactive: 0 | inactive: 0 | inactive: 0 | inactive: 0 | inactive: 0 | inactive: 0 | inactive: 0 | inactive: 0 | inactive: 0 | inactive: 0 | inactive: 0 | inactive: 0 | inactive: 0 | inactive: 0 | inactive: 0
7 | COc1cccc(-c2cc(=O)c3ccccc3o2)c1N (10 µM) | inactive: 0 | inactive: 0 | inactive: 0 | inactive: 0 | inactive: 0 | inactive: 0 | inactive: 0 | inactive: 0 | inactive: 0 | inactive: 0 | inactive: 0 | inactive: 0 | inactive: 0 | inactive: 0 | inactive: 0 | inactive: 0 | inactive: 0 | inactive: 0 | inactive: 0 | inactive: 0
8 | O=C(NCc1ccn[nH]1)c1cc([C@@H]2CCNC[C@H]2COc2ccc3c(c2)OCO3)ccc1F [GRK2-IN-1 (hydrochloride)] (10 µM) | inactive: 0 | inactive: 0 | inactive: 0 | inactive: 0 | inactive: 0 | inactive: 0 | inactive: 0 | inactive: 0 | inactive: 0 | inactive: 0 | inactive: 0 | inactive: 0 | inactive: 0 | inactive: 0 | inactive: 0 | inactive: 0 | inactive: 0 | inactive: 0 | inactive: 0 | inactive: 0
9 | O=CN1CCN(c2ccc(C=C3C(=O)Nc4ccccc43)cc2)CC1 (10 µM) | inactive: 0 | inactive: 0 | inactive: 0 | inactive: 0 | inactive: 0 | inactive: 0 | inactive: 0 | inactive: 0 | inactive: 0 | inactive: 0 | inactive: 0 | inactive: 0 | inactive: 0 | inactive: 0 | inactive: 0 | inactive: 0 | inactive: 0 | inactive: 0 | inactive: 0 | inactive: 0
10 | COc1cc2nc(NC3CC3)nc(NC3CCN(C(C)C)CC3)c2cc1OC (10 µM) | inactive: 0 | inactive: 0 | inactive: 0 | inactive: 0 | inactive: 0 | inactive: 0 | inactive: 0 | inactive: 0 | inactive: 0 | inactive: 0 | inactive: 0 | inactive: 0 | inactive: 0 | inactive: 0 | inactive: 0 | inactive: 0 | inactive: 0 | inactive: 0 | inactive: 0 | inactive: 0
11 | O=C1CCC(N2C(=O)c3cccc(OCCCCCOc4ccc(CC(=O)Nc5cc(C6CCC6)[nH]n5)cc4)c3C2=O)C(=O)N1 (stereo not given) [PROTAC CDK9 Degrader-1] (10 µM) | inactive: 0 | inactive: 0 | inactive: 0 | inactive: 0 | inactive: 0 | inactive: 0 | inactive: 0 | inactive: 0 | inactive: 0 | inactive: 0 | inactive: 0 | inactive: 0 | inactive: 0 | inactive: 0 | inactive: 0 | inactive: 0 | inactive: 0 | inactive: 0 | inactive: 0 | inactive: 0
12 | COc1ccc(CCNCc2ccc(OCc3ccc(Cl)nc3)c(OC)c2)cc1OC [SBE13 (Hydrochloride)] (10 µM) | inactive: 0 | inactive: 0 | inactive: 0 | inactive: 0 | inactive: 0 | inactive: 0 | inactive: 0 | inactive: 0 | inactive: 0 | inactive: 0 | inactive: 0 | inactive: 0 | inactive: 0 | inactive: 0 | inactive: 0 | inactive: 0 | inactive: 0 | inactive: 0 | inactive: 0 | inactive: 0
13 | C=CC(=O)Nc1cccc(Oc2nc(Nc3ccc(N4CCN(C)CC4)cc3OC)ncc2Cl)c1 (10 µM) | inactive: 0 | inactive: 0 | inactive: 0 | inactive: 0 | inactive: 0 | inactive: 0 | inactive: 0 | inactive: 0 | inactive: 0 | inactive: 0 | inactive: 0 | inactive: 0 | inactive: 0 | inactive: 0 | inactive: 0 | inactive: 0 | inactive: 0 | inactive: 0 | inactive: 0 | inactive: 0
14 | Cn1c(N2CCO[C@@H](c3ccc(F)cc3)C2)nc(-c2ccncn2)cc1=O (10 µM) | inactive: 0 | inactive: 0 | inactive: 0 | inactive: 0 | inactive: 0 | inactive: 0 | inactive: 0 | inactive: 0 | inactive: 0 | inactive: 0 | inactive: 0 | inactive: 0 | inactive: 0 | inactive: 0 | inactive: 0 | inactive: 0 | inactive: 0 | inactive: 0 | inactive: 0 | inactive: 0
15 | NC(=O)c1ccccc1Nc1ccnc(Nc2cccc(O)c2)n1 (10 µM) | active: 1 | inactive: 0 | inactive: 0 | inactive: 0 | inactive: 0 | inactive: 0 | inactive: 0 | inactive: 0 | inactive: 0 | inactive: 0 | inactive: 0 | inactive: 0 | inactive: 0 | inactive: 0 | inactive: 0 | inactive: 0 | inactive: 0 | inactive: 0 | inactive: 0 | inactive: 0
16 | CO/N=C1/C(c2c(O)[nH]c3cc(Cl)c(Cl)cc23)=Nc2ccccc21 (10 µM) | inactive: 0 | inactive: 0 | inactive: 0 | inactive: 0 | inactive: 0 | inactive: 0 | inactive: 0 | inactive: 0 | inactive: 0 | inactive: 0 | inactive: 0 | inactive: 0 | inactive: 0 | inactive: 0 | inactive: 0 | inactive: 0 | inactive: 0 | inactive: 0 | inactive: 0 | inactive: 0
17 | NC(=O)c1cnc(N[C@@H]2CCCC[C@@H]2N)nc1Nc1cccc(-n2nccn2)c1 (2.5 µM) | inactive: 0 | inactive: 0 | inactive: 0 | inactive: 0 | inactive: 0 | inactive: 0 | inactive: 0 | inactive: 0 | inactive: 0 | inactive: 0 | inactive: 0 | inactive: 0 | inactive: 0 | inactive: 0 | inactive: 0 | inactive: 0 | inactive: 0 | inactive: 0 | inactive: 0 | inactive: 0
18 | Cc1cc(N2CCOCC2)ccc1Nc1nc(NC2CCCCC2)c2[nH]cnc2n1 (10 µM) | inactive: 0 | inactive: 0 | inactive: 0 | inactive: 0 | inactive: 0 | inactive: 0 | inactive: 0 | inactive: 0 | inactive: 0 | inactive: 0 | inactive: 0 | inactive: 0 | inactive: 0 | inactive: 0 | inactive: 0 | inactive: 0 | inactive: 0 | inactive: 0 | inactive: 0 | inactive: 0

Gathered by group: the entries above containing an aryl methoxy group
Row | Compound | kinase-Nluc reporter destabilization hit call (ABL1) | kinase-Nluc reporter destabilization hit call (AKT1) | kinase-Nluc reporter destabilization hit call (ALK) | kinase-Nluc reporter destabilization hit call (ARAF) | kinase-Nluc reporter destabilization hit call (AURKA) | kinase-Nluc reporter destabilization hit call (AURKB) | kinase-Nluc reporter destabilization hit call (AURKC) | kinase-Nluc reporter destabilization hit call (BLK) | kinase-Nluc reporter destabilization hit call (BMX) | kinase-Nluc reporter destabilization hit call (BRAF) | kinase-Nluc reporter destabilization hit call (BRAF_V600E) | kinase-Nluc reporter destabilization hit call (BTK) | kinase-Nluc reporter destabilization hit call (CAMK2A) | kinase-Nluc reporter destabilization hit call (CAMK2G) | kinase-Nluc reporter destabilization hit call (CDK10) | kinase-Nluc reporter destabilization hit call (CDK2) | kinase-Nluc reporter destabilization hit call (CDK3) | kinase-Nluc reporter destabilization hit call (CDK4) | kinase-Nluc reporter destabilization hit call (CDK5) | kinase-Nluc reporter destabilization hit call (CDK6)
7 | COc1cccc(-c2cc(=O)c3ccccc3o2)c1N (10 µM) | inactive: 0 | inactive: 0 | inactive: 0 | inactive: 0 | inactive: 0 | inactive: 0 | inactive: 0 | inactive: 0 | inactive: 0 | inactive: 0 | inactive: 0 | inactive: 0 | inactive: 0 | inactive: 0 | inactive: 0 | inactive: 0 | inactive: 0 | inactive: 0 | inactive: 0 | inactive: 0
10 | COc1cc2nc(NC3CC3)nc(NC3CCN(C(C)C)CC3)c2cc1OC (10 µM) | inactive: 0 | inactive: 0 | inactive: 0 | inactive: 0 | inactive: 0 | inactive: 0 | inactive: 0 | inactive: 0 | inactive: 0 | inactive: 0 | inactive: 0 | inactive: 0 | inactive: 0 | inactive: 0 | inactive: 0 | inactive: 0 | inactive: 0 | inactive: 0 | inactive: 0 | inactive: 0
12 | COc1ccc(CCNCc2ccc(OCc3ccc(Cl)nc3)c(OC)c2)cc1OC [SBE13 (Hydrochloride)] (10 µM) | inactive: 0 | inactive: 0 | inactive: 0 | inactive: 0 | inactive: 0 | inactive: 0 | inactive: 0 | inactive: 0 | inactive: 0 | inactive: 0 | inactive: 0 | inactive: 0 | inactive: 0 | inactive: 0 | inactive: 0 | inactive: 0 | inactive: 0 | inactive: 0 | inactive: 0 | inactive: 0
13 | C=CC(=O)Nc1cccc(Oc2nc(Nc3ccc(N4CCN(C)CC4)cc3OC)ncc2Cl)c1 (10 µM) | inactive: 0 | inactive: 0 | inactive: 0 | inactive: 0 | inactive: 0 | inactive: 0 | inactive: 0 | inactive: 0 | inactive: 0 | inactive: 0 | inactive: 0 | inactive: 0 | inactive: 0 | inactive: 0 | inactive: 0 | inactive: 0 | inactive: 0 | inactive: 0 | inactive: 0 | inactive: 0

Source: the supplement of paper PMC12823440, “Inhibitors supercharge kinase turnover through native proteolytic circuits” (Nature, 2025)
